Laboratory results reported in the supplement of paper PMC6078165.

Test system: MDAMB436
Experiment: relative JC-1 red fluorescence (viability) vs pre-drug, coculture with fibroblast (fraction); higher = more viable cancer cells
Description: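 JC-1 labelled TNBC cells cocultured 1:1 (1,500 cells each) with CellTrace Violet stained primary or stromal fibroblasts in 384-well plates in FluoroBrite medium, treated with one of 42 anticancer drugs at 0.1, 1, 10 or 100 uM. JC-1 red fluorescence (mitochondrial integrity in cancer cells only) was read by plate reader every 8 h for 72 h. Values are normalised to each well's pre-drug value. The stock of one drug was tenfold lower, so its dose labels may be too high.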

CN(C)CCOc1ccc(/C(=C(/CCCl)c2ccccc2)c2ccccc2)cc1 [Toremifene]
relative JC-1 red fluorescence
Conditions | 8 h | 16 h | 24 h | 32 h | 40 h | 48 h | 56 h | 64 h | 72 h
0.1 µM, coculture fibroblast: C12385 | 0.7677 | 0.6657 | 0.63 | 0.53 | 0.476 | 0.45 | 0.428 | 0.413 | 0.406
0.1 µM, coculture fibroblast: H6013 | 0.783 | 0.7273 | 0.703 | 0.6888 | 0.666 | 0.682 | 0.631 | 0.621 | 0.576
0.1 µM, coculture fibroblast: H6019 | 0.697 | 0.64453 | 0.602 | 0.523 | 0.478 | 0.451 | 0.423 | 0.394 | 0.369
0.1 µM, coculture fibroblast: H6076 | 0.733 | 0.6643 | 0.6459 | 0.601 | 0.593 | 0.57626 | 0.595 | 0.5815 | 0.5726
0.1 µM, coculture fibroblast: H6231 | 0.75 | 0.669 | 0.696 | 0.614 | 0.607 | 0.579 | 0.562 | 0.543 | 0.524
0.1 µM, coculture fibroblast: HADF | 0.822 | 0.719 | 0.696 | 0.664 | 0.644 | 0.665 | 0.607 | 0.599 | 0.564
0.1 µM, coculture fibroblast: HCFa | 0.755 | 0.707 | 0.669 | 0.627 | 0.599 | 0.603 | 0.541 | 0.522 | 0.468
0.1 µM, coculture fibroblast: HCPF | 0.7189 | 0.672 | 0.679 | 0.621 | 0.618 | 0.583 | 0.576 | 0.559 | 0.547
0.1 µM, coculture fibroblast: HHSteC | 0.7917 | 0.757 | 0.728 | 0.683 | 0.674 | 0.686 | 0.623 | 0.601 | 0.54
0.1 µM, coculture fibroblast: HMF | 0.707 | 0.66 | 0.6287 | 0.5836 | 0.5734 | 0.54 | 0.538 | 0.513 | 0.5096
0.1 µM, coculture fibroblast: HPFa | 0.885 | 0.786 | 0.749 | 0.7 | 0.677 | 0.6784 | 0.599 | 0.5709 | 0.4906
0.1 µM, coculture fibroblast: HUF | 0.836 | 0.759 | 0.749 | 0.676 | 0.631 | 0.601 | 0.577 | 0.563 | 0.558
0.1 µM, coculture fibroblast: Hs5 | 0.765 | 0.72 | 0.714 | 0.663 | 0.659 | 0.618 | 0.63 | 0.605 | 0.607
0.1 µM, coculture fibroblast: Hs27A | 0.82 | 0.735 | 0.685 | 0.653 | 0.629 | 0.674 | 0.581 | 0.559 | 0.489
0.1 µM, coculture fibroblast: Hs343T | 0.79 | 0.731 | 0.68 | 0.627 | 0.578 | 0.532 | 0.508 | 0.49 | 0.4726
0.1 µM, coculture fibroblast: WS1 | 0.7736 | 0.668 | 0.6225 | 0.53 | 0.472 | 0.437 | 0.401 | 0.368 | 0.355
1 µM, coculture fibroblast: C12385 | 0.852 | 0.783 | 0.679 | 0.631 | 0.578 | 0.548 | 0.523 | 0.5 | 0.496
1 µM, coculture fibroblast: H6013 | 0.8913 | 0.799 | 0.792 | 0.784 | 0.758 | 0.756 | 0.727 | 0.704 | 0.661
1 µM, coculture fibroblast: H6019 | 0.8012 | 0.735 | 0.708 | 0.654 | 0.6131 | 0.581 | 0.5503 | 0.513 | 0.48512
1 µM, coculture fibroblast: H6076 | 0.851 | 0.783 | 0.775 | 0.733 | 0.715 | 0.684 | 0.678 | 0.6705 | 0.6528
1 µM, coculture fibroblast: H6231 | 0.81 | 0.73 | 0.716 | 0.657 | 0.624 | 0.592 | 0.575 | 0.528 | 0.502
1 µM, coculture fibroblast: HADF | 0.8642 | 0.788 | 0.762 | 0.714 | 0.685 | 0.682 | 0.626 | 0.607 | 0.565
1 µM, coculture fibroblast: HCFa | 0.8533 | 0.781 | 0.7591 | 0.721 | 0.68 | 0.678 | 0.611 | 0.589 | 0.521
1 µM, coculture fibroblast: HCPF | 0.868 | 0.794 | 0.7717 | 0.723 | 0.691 | 0.647 | 0.607 | 0.578 | 0.55
1 µM, coculture fibroblast: HHSteC | 0.884 | 0.823 | 0.7613 | 0.7158 | 0.6804 | 0.66623 | 0.6054 | 0.57624 | 0.5165
1 µM, coculture fibroblast: HMF | 0.83924 | 0.757 | 0.717 | 0.686 | 0.655 | 0.612 | 0.602 | 0.585 | 0.563
1 µM, coculture fibroblast: HPFa | 0.9137 | 0.871 | 0.8187 | 0.767 | 0.744 | 0.73 | 0.646 | 0.599 | 0.518
1 µM, coculture fibroblast: HUF | 0.8749 | 0.779 | 0.745 | 0.665 | 0.608 | 0.581 | 0.552 | 0.537 | 0.523
1 µM, coculture fibroblast: Hs5 | 0.848 | 0.7765 | 0.752 | 0.699 | 0.678 | 0.64 | 0.633 | 0.598 | 0.58
1 µM, coculture fibroblast: Hs27A | 0.8737 | 0.795 | 0.769 | 0.7408 | 0.7123 | 0.726 | 0.64523 | 0.6183 | 0.541
1 µM, coculture fibroblast: Hs343T | 0.8406 | 0.777 | 0.75079 | 0.712 | 0.6889 | 0.6618 | 0.6406 | 0.6225 | 0.607
1 µM, coculture fibroblast: WS1 | 0.8432 | 0.749 | 0.695 | 0.631 | 0.581 | 0.546 | 0.525 | 0.499 | 0.485

The reference is the same well before dosing, and untreated signal decays as well.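 Fibroblast labels name human fibroblasts: mostly primary ones from tissues such as uterus (C12385, HUF), lung (H6013), bone (Hs27A), adrenal (HADF) and skin (WS1), plus mammary HMF and breast cancer-associated Hs343T. The cancer cells are basal-like or mesenchymal-like triple-negative breast cancer lines. The paper calls a changed response a hit when it shifts by more than 3x the replicate standard deviation. The tissue of the other fibroblasts is not given here.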
